According to patent US8216786B2, “Genetic polymorphisms associated with cardiovascular diseases, methods of detection and uses thereof” (Celera Corporation, priority 2008, dated 2012):
The source gives many values for each of these; only a part stands here.

System: individuals who have previously had an MI
Experiment: CARE trial: effect of pravastatin vs placebo on coronary events (endpt1, rmi) by SNP genotype subgroup
Type: in vivo, human
Settings: endpt1
Procedure: In Tables 21-22, the column labeled “Endpoint” indicates whether the endpoint that was analyzed was the primary endpoint of the CARE study (a composite endpoint of fatal coronary event or nonfatal MI, and identified as “endpt1”) or a composite endpoint of confirmed fatal or nonfatal MI (identified as “rmi”). […] As used herein, the term “benefit” (with respect to a preventive or therapeutic drug treatment) is defined as achieving a reduced risk for a disease that the drug is intended to treat or prevent (e.g., CVD such as CHD, particularly MI, or hypertension) by administering the drug treatment, compared with the risk for the disease in the absence of receiving the drug treatment (or receiving a placebo in lieu of the drug treatment) for the same genotype. […] J. […] (1996) New England Journal of Medicine 335: 1001-1009. […] A well-documented MI was one of the enrollment criteria for entry into the CARE study. Patients were enrolled in the CARE trial from 80 participating study centers. […] For the study of CARE described in this Example and shown in Tables 21-22, two endpoints were investigated: the primary endpoint of CARE (a composite endpoint of fatal coronary event or nonfatal MI, and identified as “endpt1” in the Endpoint column of Tables 21-22) and a composite endpoint of confirmed fatal or nonfatal MI (identified as “rmi” in the Endpoint column of Tables 21-22). […] HR stands for Hazard Ratio, which is a concept similar to Odds Ratio (OR). The HR in event-free survival analysis is the effect of an explanatory variable on the hazard or risk of an event. […] In Table 21, p-interaction values were calculated. An interaction (or effect modification) is formed when a third variable modifies the relation between an exposure and outcome. […] Genotype and drug interaction is present when the effect of statins (incidence rate of disease in statin-treated group, as compared to placebo) differs in patients with different genotypes.

[1] = hCV2276802 rs381418 GBA, Strata CA + CC
[2] = hCV2310409 45474794-rs6 APOA4, Strata AT + AA
[3] = hCV2310409 45474794-rs6 APOA4, Strata TT
[4] = hCV2485037 rs4904448 SPATA7, Strata AA
[5] = hCV2485037 rs4904448 SPATA7, Strata AG + GG
[6] = hCV2503034 rs1132356 BAIAP3, Strata AA
[7] = hCV2503034 rs1132356 BAIAP3, Strata AC
[8] = hCV2503034 rs1132356 BAIAP3, Strata CC
[9] = hCV2531086 rs10406069 CD22, Strata AA
[10] = hCV2531086 rs10406069 CD22, Strata AG + GG
[11] = hCV2536595 rs704 VTN, Strata AG + AA
[12] = hCV2536595 rs704 VTN, Strata GG
[13] = hCV2554615 rs2522057 LOC441108, strata CG + CC
[14] = hCV2554615 rs2522057 LOC441108, strata GG
[15] = hCV2554721 rs7315519 RPH3A, strata AG + AA
[16] = hCV2554721 rs7315519 RPH3A, strata GG
[17] = hCV2557331 rs233716 RPH3A, strata CC
[18] = hCV2557331 rs233716 RPH3A, strata CT + TT
[19] = hCV2632070 rs714052 BAZ1B, strata AA
[20] = hCV2632070 rs714052 BAZ1B, strata AG + GG
[21] = hCV2632498 rs3812316 MLXIPL, strata CC
[22] = hCV2632498 rs3812316 MLXIPL, strata CG + GG
[23] = hCV2632544 rs17145738, strata CC
[24] = hCV2632544 rs17145738, strata CT + TT
[25] = hCV2762168 rs3939286, strata CC
[26] = hCV2762168 rs3939286, strata TC + TT
[27] = hCV2781953 rs6021931, strata GT + GG
[28] = hCV2781953 rs6021931, strata TT
[29] = hCV3168675 rs469930, strata GA + GG
[30] = hCV3170445 rs272893 SLC22A4, strata CC
[31] = hCV3170445 rs272893 SLC22A4, strata TC + TT
[32] = hCV3170459 rs1050152 SLC22A4, strata CT + CC
[33] = hCV3170459 rs1050152 SLC22A4, strata TT
[34] = hCV3242919 rs486394, strata AC + AA
[35] = hCV3242952 rs2000571, strata AG + AA
[36] = hCV3242952 rs2000571, strata GG
[37] = hCV7501549 rs1467412 ATP9A, strata CT + CC
[38] = hCV7501549 rs1467412 ATP9A, strata TT
[39] = hCV7537517 rs1501908, strata CG + CC
[40] = hCV7537517 rs1501908, strata GG
[41] = hCV7910239 rs1541296 FVT1, strata AG + AA
[42] = hCV7910239 rs1541296 FVT1, strata GG
[43] = hCV8369472 rs1447351 MTNR1B, strata AA
[44] = hCV8369472 rs1447351 MTNR1B, strata GA
[45] = hCV8369472 rs1447351 MTNR1B, strata GG
[46] = hCV8420416 rs719909 PANK1, strata CT + CC
[47] = hCV8420416 rs719909 PANK1, strata TT
[48] = hCV8785824 rs1412426, strata AA
[49] = hCV8785824 rs1412426, strata AC + CC
[50] = hCV8785827 rs992969 IL33, strata AG + AA

## CC[C@H](C)C(=O)O[C@H]1C[C@H](O)C=C2C=C[C@H](C)[C@H](CC[C@@H](O)C[C@@H](O)CC(=O)O)[C@H]21 [pravastatin]
hCV2276802 rs381418 GBA, Strata AA
  NONEVENT (Pravastatin arm): 354
[1]
  EVENTS (Pravastatin arm): 100
  NONEVENT (Pravastatin arm): 935
[2]
  EVENTS (Pravastatin arm): 56
  NONEVENT (Pravastatin arm): 459
[3]
  EVENTS (Pravastatin arm): 76
  NONEVENT (Pravastatin arm): 825
[4]
  EVENTS (Pravastatin arm): 31
  NONEVENT (Pravastatin arm): 228
[5]
  EVENTS (Pravastatin arm): 101
  NONEVENT (Pravastatin arm): 1032
[6]
  EVENTS (Pravastatin arm): 0
  NONEVENT (Pravastatin arm): 16
[7]
  EVENTS (Pravastatin arm): 34
  NONEVENT (Pravastatin arm): 258
[8]
  EVENTS (Pravastatin arm): 97
  NONEVENT (Pravastatin arm): 1010
[9]
  EVENTS (Pravastatin arm): 7
  NONEVENT (Pravastatin arm): 52
[10]
  EVENTS (Pravastatin arm): 124
  NONEVENT (Pravastatin arm): 1236
[11]
  EVENTS (Pravastatin arm): 89
  NONEVENT (Pravastatin arm): 940
[12]
  EVENTS (Pravastatin arm): 44
  NONEVENT (Pravastatin arm): 351
[13]
  EVENTS (Pravastatin arm): 107
  NONEVENT (Pravastatin arm): 1046
[14]
  EVENTS (Pravastatin arm): 29
  NONEVENT (Pravastatin arm): 216
[15]
  EVENTS (Pravastatin arm): 84
  NONEVENT (Pravastatin arm): 911
[16]
  EVENTS (Pravastatin arm): 52
  NONEVENT (Pravastatin arm): 355
[17]
  EVENTS (Pravastatin arm): 18
  NONEVENT (Pravastatin arm): 235
[18]
  EVENTS (Pravastatin arm): 118
  NONEVENT (Pravastatin arm): 1029
[19]
  EVENTS (Pravastatin arm): 96
  NONEVENT (Pravastatin arm): 974
[20]
  EVENTS (Pravastatin arm): 40
  NONEVENT (Pravastatin arm): 289
[21]
  EVENTS (Pravastatin arm): 96
  NONEVENT (Pravastatin arm): 969
[22]
  EVENTS (Pravastatin arm): 40
  NONEVENT (Pravastatin arm): 297
[23]
  EVENTS (Pravastatin arm): 95
  NONEVENT (Pravastatin arm): 983
[24]
  EVENTS (Pravastatin arm): 41
  NONEVENT (Pravastatin arm): 283
[25]
  EVENTS (Pravastatin arm): 74
  NONEVENT (Pravastatin arm): 673
[26]
  EVENTS (Pravastatin arm): 62
  NONEVENT (Pravastatin arm): 592
[27]
  EVENTS (Pravastatin arm): 127
  NONEVENT (Pravastatin arm): 1214
[28]
  EVENTS (Pravastatin arm): 9
  NONEVENT (Pravastatin arm): 49
hCV3168675 rs469930, strata AA
  EVENTS (Pravastatin arm): 59
  NONEVENT (Pravastatin arm): 499
[29]
  EVENTS (Pravastatin arm): 77
  NONEVENT (Pravastatin arm): 766
[30]
  EVENTS (Pravastatin arm): 55
  NONEVENT (Pravastatin arm): 487
[31]
  EVENTS (Pravastatin arm): 81
  NONEVENT (Pravastatin arm): 779
[32]
  EVENTS (Pravastatin arm): 105
  NONEVENT (Pravastatin arm): 1038
[33]
  EVENTS (Pravastatin arm): 31
  NONEVENT (Pravastatin arm): 223
[34]
  EVENTS (Pravastatin arm): 120
  NONEVENT (Pravastatin arm): 1158
hCV3242919 rs486394, strata CC
  EVENTS (Pravastatin arm): 16
  NONEVENT (Pravastatin arm): 104
[35]
  EVENTS (Pravastatin arm): 42
  NONEVENT (Pravastatin arm): 464
[36]
  EVENTS (Pravastatin arm): 94
  NONEVENT (Pravastatin arm): 799
[37]
  EVENTS (Pravastatin arm): 93
  NONEVENT (Pravastatin arm): 947
[38]
  EVENTS (Pravastatin arm): 43
  NONEVENT (Pravastatin arm): 319
[39]
  EVENTS (Pravastatin arm): 117
  NONEVENT (Pravastatin arm): 1087
[40]
  EVENTS (Pravastatin arm): 19
  NONEVENT (Pravastatin arm): 175
[41]
  EVENTS (Pravastatin arm): 118
  NONEVENT (Pravastatin arm): 1111
[42]
  EVENTS (Pravastatin arm): 18
  NONEVENT (Pravastatin arm): 147
[43]
  EVENTS (Pravastatin arm): 29
  NONEVENT (Pravastatin arm): 330
[44]
  EVENTS (Pravastatin arm): 65
  NONEVENT (Pravastatin arm): 586
[45]
  EVENTS (Pravastatin arm): 42
  NONEVENT (Pravastatin arm): 347
[46]
  EVENTS (Pravastatin arm): 131
  NONEVENT (Pravastatin arm): 1236
[47]
  EVENTS (Pravastatin arm): 5
  NONEVENT (Pravastatin arm): 26
[48]
  EVENTS (Pravastatin arm): 8
  NONEVENT (Pravastatin arm): 127
[49]
  EVENTS (Pravastatin arm): 128
  NONEVENT (Pravastatin arm): 1137
[50]
  EVENTS (Pravastatin arm): 61
  NONEVENT (Pravastatin arm): 591
